No constants are given. Whether binding was seen depends on the method and setting. In cells and extracts the contact can be indirect. Some entries that bind do so weakly or less than the wild type. Tags and fused reporters may be left off the sequences shown.
Molecular target: T1, Dsn1 with 6xHis and 3xFlag tags on its C-terminus (S. cerevisiae) (UniProt P40568)
T1 sequence: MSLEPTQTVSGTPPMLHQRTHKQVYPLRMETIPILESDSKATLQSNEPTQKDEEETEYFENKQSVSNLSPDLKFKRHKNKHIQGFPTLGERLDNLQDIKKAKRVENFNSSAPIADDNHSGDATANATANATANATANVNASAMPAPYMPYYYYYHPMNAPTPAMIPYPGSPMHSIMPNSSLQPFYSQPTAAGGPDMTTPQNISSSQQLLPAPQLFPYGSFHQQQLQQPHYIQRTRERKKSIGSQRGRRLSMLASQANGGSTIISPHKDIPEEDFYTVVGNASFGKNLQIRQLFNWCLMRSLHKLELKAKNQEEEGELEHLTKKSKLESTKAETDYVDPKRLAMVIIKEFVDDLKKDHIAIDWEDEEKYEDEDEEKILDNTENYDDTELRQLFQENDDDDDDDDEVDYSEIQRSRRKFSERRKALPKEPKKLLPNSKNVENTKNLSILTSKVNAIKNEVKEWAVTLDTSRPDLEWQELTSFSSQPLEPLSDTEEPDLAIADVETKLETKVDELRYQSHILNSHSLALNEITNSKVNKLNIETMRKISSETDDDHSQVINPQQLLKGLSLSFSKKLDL
Assay: co-IP; anti-flag Dynabeads on clarified yeast lysate (Dsn1-6His-3Flag, strain SBY8726 shifted to 37 °C), Buffer H (150 mM KCl, 0.1% NP-40), two hours at 4 °C, five washes; immunoblot

Sequences of proteins named here, by UniProt entry; tags and fusion partners are left off.
UniProt P40460: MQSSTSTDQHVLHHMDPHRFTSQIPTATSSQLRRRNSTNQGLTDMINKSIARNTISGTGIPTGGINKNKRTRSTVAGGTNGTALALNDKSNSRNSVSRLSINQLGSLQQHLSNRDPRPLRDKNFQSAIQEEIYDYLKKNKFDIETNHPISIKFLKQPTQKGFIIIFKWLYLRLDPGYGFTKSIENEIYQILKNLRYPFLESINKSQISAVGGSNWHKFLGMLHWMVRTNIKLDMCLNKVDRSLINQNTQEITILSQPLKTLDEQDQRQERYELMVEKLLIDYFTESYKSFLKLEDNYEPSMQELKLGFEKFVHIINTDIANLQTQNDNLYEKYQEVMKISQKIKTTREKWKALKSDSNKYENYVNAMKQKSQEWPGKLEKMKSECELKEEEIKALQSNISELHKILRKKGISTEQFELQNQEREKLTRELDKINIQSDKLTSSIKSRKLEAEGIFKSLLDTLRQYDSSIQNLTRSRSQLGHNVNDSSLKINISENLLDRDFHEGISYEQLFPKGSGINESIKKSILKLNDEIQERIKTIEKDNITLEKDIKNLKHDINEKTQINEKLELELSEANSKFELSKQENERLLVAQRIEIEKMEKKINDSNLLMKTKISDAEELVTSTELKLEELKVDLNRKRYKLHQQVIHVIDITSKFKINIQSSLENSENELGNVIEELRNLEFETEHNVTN

Ndc80 (from UniProt P40460 1-691)
binding: binds

Reference: PMC9021268
